The values below come from paper doi:10.1101/330266.

In test [1] the target is 295DNIKHV300 peptide (upstream N-terminal sequence) (human). The test is described as follows: thioflavin T.
The target of test [2] is T1, R2R3-WT peptide fragment (human).
T1 chain: DNIKHVPGGGSVQIVYK
In words: thioflavin T. The settings on record: remark: other sources report otherwise.

No constants are given. Whether binding was seen depends on the method and setting.

B1: 295DNIKHV300 peptide (upstream N-terminal sequence) (peptide)
peptide: DNIKHV
modifications: N-terminal acetylation; C-terminal amidation
As for B1, in test [1], the binding result was “no binding”.

B2: R2R3-WT peptide fragment (peptide)
peptide: DNIKHVPGGGSVQIVYK
modifications: here or on the partner: N-terminal acetylation; C-terminal amidation; N-terminal acetylation; C-terminal amidation
In the case of B2, the binding result in test [2] is on record as “no binding (tested: 200 µM)”.
